Assay results: the supplement of paper PMC10849652
Some of the results follow.

Sequences of proteins named here, by UniProt entry; tags and fusion partners are left off. A change or cut given only in a name is not applied to a line headed by its entry.
UniProt Q99613, whole entry, looked up: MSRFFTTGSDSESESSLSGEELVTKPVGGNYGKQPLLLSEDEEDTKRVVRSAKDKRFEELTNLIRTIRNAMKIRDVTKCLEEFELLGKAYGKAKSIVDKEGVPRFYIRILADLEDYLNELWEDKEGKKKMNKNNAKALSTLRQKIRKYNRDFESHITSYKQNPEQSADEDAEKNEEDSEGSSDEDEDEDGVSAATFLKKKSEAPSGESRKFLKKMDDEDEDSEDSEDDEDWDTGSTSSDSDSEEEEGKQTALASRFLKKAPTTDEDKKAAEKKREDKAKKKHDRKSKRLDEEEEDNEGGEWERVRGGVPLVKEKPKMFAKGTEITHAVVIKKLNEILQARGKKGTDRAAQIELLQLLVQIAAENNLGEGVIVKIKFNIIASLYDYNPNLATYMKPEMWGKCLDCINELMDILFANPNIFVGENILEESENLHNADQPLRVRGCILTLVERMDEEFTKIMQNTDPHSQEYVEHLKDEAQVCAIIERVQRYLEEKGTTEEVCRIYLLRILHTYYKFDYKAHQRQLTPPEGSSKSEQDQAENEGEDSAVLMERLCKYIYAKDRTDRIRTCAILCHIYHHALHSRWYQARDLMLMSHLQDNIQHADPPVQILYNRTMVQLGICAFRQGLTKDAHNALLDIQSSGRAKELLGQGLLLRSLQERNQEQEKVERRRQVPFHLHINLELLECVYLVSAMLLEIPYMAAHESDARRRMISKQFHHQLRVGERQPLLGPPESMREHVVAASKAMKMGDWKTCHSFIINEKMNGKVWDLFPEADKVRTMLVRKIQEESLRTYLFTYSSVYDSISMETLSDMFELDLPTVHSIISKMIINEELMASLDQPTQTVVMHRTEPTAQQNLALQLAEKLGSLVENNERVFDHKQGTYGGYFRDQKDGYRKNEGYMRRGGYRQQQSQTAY
UniProt Q8IZ81: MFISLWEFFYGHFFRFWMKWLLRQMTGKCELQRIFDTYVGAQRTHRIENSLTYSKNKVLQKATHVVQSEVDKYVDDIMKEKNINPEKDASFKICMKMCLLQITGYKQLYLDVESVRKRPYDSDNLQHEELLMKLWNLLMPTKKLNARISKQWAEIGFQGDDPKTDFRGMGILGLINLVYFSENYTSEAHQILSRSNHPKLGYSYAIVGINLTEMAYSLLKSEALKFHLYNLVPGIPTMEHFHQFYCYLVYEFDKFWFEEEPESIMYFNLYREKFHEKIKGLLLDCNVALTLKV
UniProt Q13542: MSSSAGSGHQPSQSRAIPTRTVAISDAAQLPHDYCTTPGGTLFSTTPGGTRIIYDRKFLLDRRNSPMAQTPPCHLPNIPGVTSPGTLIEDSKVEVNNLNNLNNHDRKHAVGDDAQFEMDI
UniProt Q9BV81: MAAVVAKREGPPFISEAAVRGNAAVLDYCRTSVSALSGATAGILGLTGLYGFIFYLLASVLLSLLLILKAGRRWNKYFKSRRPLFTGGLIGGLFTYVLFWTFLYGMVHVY
UniProt O95163: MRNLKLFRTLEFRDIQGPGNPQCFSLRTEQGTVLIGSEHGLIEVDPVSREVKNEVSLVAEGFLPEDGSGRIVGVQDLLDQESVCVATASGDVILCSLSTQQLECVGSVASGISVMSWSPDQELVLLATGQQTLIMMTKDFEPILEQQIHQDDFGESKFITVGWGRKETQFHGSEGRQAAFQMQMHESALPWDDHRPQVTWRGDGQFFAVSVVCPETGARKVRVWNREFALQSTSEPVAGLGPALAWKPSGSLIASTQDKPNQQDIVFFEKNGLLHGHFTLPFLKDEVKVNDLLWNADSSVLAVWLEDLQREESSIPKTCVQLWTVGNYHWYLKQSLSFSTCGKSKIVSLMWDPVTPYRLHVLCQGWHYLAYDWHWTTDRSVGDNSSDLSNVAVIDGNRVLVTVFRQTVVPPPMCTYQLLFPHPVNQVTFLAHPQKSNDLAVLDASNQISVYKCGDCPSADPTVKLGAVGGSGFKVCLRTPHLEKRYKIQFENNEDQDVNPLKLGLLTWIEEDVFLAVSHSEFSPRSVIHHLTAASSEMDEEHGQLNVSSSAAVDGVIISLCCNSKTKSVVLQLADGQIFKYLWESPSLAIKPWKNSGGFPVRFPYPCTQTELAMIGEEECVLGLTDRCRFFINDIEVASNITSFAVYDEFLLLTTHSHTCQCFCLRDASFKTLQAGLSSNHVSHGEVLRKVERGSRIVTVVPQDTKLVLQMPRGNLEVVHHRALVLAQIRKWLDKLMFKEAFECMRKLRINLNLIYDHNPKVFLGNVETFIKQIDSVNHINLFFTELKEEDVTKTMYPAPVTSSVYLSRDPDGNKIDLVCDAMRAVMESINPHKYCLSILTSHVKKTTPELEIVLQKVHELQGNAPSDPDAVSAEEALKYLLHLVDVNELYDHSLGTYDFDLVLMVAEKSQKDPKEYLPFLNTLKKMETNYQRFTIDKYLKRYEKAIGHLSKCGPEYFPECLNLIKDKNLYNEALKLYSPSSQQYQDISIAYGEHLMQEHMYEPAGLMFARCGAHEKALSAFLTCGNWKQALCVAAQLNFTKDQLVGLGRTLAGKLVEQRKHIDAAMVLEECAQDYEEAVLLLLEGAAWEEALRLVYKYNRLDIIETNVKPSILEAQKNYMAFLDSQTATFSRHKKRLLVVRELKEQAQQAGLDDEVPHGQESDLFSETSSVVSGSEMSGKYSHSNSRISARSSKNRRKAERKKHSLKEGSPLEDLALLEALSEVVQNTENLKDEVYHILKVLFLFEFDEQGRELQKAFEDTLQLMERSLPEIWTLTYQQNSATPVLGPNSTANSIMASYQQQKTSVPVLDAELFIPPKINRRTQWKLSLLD
UniProt P41214: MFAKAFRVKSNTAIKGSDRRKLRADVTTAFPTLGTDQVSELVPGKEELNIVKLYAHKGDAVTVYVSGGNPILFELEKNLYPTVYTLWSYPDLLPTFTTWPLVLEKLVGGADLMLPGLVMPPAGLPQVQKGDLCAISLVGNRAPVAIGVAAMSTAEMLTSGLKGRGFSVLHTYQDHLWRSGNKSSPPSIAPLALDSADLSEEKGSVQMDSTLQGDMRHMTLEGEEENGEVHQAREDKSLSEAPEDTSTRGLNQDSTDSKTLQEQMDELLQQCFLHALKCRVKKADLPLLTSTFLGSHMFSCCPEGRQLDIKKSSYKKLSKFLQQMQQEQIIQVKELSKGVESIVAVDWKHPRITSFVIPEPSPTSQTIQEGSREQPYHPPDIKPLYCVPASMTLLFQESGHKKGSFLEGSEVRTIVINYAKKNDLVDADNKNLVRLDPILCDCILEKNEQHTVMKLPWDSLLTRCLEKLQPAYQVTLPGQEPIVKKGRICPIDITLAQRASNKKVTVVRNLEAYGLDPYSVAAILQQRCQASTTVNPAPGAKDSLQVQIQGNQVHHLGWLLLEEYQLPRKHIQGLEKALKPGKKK
UniProt O15371, whole entry, looked up: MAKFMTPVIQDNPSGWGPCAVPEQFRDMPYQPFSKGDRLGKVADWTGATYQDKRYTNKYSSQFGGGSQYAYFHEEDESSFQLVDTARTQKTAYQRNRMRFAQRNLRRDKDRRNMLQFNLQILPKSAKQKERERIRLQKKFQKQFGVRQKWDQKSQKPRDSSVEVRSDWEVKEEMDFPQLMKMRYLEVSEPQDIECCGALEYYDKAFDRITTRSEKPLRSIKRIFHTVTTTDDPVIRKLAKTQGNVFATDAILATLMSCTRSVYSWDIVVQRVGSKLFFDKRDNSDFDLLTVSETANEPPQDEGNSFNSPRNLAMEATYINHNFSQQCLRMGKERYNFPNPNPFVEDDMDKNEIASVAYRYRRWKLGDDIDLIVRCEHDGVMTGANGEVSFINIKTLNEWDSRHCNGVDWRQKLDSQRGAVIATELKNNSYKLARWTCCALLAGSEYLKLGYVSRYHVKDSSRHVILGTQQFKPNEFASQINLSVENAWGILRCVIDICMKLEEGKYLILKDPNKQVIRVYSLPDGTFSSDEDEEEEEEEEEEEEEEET
UniProt Q32P44: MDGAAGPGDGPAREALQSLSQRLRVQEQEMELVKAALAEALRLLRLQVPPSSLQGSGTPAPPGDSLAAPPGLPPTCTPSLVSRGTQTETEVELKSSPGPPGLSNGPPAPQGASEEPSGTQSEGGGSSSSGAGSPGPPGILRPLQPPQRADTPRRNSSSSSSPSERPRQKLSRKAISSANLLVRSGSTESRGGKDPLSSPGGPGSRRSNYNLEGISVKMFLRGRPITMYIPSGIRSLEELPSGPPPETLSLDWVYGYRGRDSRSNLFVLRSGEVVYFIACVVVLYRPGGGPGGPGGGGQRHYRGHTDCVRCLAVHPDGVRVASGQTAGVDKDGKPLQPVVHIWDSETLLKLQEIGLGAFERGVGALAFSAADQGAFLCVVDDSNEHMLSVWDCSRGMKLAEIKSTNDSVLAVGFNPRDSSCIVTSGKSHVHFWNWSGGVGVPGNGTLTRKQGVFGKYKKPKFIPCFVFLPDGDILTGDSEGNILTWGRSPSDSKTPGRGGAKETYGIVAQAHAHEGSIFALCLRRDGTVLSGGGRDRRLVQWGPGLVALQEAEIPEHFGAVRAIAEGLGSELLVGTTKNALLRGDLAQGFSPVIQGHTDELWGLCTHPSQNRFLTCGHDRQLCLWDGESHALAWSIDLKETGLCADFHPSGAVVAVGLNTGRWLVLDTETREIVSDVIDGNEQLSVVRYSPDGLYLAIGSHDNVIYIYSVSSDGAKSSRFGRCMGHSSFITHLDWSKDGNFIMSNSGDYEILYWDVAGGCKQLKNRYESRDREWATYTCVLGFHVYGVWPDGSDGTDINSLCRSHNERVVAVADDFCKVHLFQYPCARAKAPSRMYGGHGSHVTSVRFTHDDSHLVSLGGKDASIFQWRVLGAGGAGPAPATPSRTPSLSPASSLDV
UniProt Q05639, whole entry, looked up: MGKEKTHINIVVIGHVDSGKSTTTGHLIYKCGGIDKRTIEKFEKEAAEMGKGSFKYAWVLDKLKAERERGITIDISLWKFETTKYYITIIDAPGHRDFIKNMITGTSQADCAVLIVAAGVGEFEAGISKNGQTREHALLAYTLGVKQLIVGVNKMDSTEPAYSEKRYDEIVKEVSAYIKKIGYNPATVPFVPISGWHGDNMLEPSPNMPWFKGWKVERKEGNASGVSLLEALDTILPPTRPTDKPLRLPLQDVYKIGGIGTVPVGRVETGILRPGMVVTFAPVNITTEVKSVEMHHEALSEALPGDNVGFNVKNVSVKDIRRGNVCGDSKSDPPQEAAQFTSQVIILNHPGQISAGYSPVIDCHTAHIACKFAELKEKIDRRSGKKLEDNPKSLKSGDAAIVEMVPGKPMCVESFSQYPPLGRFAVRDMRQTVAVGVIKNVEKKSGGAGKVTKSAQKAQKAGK
UniProt Q7L5Y1: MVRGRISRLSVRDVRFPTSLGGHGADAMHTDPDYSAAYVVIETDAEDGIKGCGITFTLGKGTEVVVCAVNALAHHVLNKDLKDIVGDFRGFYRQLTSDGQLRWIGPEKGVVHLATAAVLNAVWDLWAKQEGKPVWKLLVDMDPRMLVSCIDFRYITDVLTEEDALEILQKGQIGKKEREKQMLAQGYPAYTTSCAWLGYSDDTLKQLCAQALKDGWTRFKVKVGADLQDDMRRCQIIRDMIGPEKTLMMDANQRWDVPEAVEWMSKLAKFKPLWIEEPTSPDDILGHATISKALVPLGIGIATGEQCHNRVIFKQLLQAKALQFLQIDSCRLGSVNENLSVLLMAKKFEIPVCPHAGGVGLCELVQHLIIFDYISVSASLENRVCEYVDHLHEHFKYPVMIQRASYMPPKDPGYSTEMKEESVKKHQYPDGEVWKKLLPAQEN
UniProt Q92979: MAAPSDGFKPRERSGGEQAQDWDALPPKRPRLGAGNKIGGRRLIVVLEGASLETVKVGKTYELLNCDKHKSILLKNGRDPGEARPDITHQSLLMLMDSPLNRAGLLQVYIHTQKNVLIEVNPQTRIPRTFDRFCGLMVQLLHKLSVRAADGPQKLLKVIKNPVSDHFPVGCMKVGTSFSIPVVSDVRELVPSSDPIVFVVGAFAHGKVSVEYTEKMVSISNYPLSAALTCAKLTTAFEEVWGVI
UniProt Q9H4M9: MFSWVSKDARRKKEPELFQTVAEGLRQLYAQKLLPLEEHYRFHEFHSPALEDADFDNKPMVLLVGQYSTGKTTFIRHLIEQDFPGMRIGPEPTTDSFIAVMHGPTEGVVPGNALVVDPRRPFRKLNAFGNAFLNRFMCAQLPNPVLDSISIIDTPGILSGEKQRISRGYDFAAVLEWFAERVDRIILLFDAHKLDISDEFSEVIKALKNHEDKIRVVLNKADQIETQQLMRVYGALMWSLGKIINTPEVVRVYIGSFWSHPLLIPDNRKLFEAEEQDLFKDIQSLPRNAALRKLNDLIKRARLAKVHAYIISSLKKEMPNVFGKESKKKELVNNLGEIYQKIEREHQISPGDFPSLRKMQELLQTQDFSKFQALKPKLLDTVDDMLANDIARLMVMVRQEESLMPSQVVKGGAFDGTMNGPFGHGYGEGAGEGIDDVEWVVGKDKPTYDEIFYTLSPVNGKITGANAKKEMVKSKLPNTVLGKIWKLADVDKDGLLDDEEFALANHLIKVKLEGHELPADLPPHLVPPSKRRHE

Columns and labels:
Assay in all cases: log2 fold change, soluble protein after heating vs DMSO (PISA); higher = thermal stabilisation; K562 cells, 10 uM, 30 min; active = over 0.2 and 3.5 SD of the protein, either way, in both replicates (recomputed)
[1] = compound: CS(=O)(=O)c1ccc(-c2cnc(N)c(C(=O)Nc3ccccc3)n2)cc1
Summary of the method: (§1)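 Thermal stability values are relative to control samples and come from duplicates. They are expressed as log2 fold changes. For measurement, K562 cells (2×10^6 cells/mL) received 10 μM compound for 30 min, and aliquots were heated for 3 min over 48°C-58°C, pooled, and extracted at 4°C in PBS with 0.5% NP-40. Soluble protein, the supernatant after 21,000xg for 90 min, was quantified by TMTpro 16plex LC-MS/MS with equalised channel sums.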

crizotinib = compound: C[C@@H](Oc1cc(-c2cnn(C3CCNCC3)c2)cnc1N)c1c(Cl)ccc(F)c1Cl [crizotinib]
Summary of the method: as §1

[2] = compound: C[C@@H]1COCCN1C2=NC(=NC(=C2)C3(CC3)S(=O)(=O)C)C4=C5C=CNC5=CC=C4
Summary of the method: as §1

[3] = compound: C[C@H](C1=CC=C(C=C1)C(=O)NC2=C3C=CNC3=NC=C2)N
Summary of the method: as §1

duvelisib = compound: C[C@H](Nc1ncnc2nc[nH]c12)c1cc2cccc(Cl)c2c(=O)n1-c1ccccc1 [duvelisib]
Summary of the method: as §1

gandotinib = compound: Cc1cc(Nc2cc(CN3CCOCC3)c3nc(C)c(Cc4ccc(Cl)cc4F)n3n2)n[nH]1 [gandotinib]
Summary of the method: as §1

tozasertib = compound: Cc1cc(Nc2cc(N3CCN(C)CC3)nc(Sc3ccc(NC(=O)C4CC4)cc3)n2)n[nH]1 [tozasertib]
Summary of the method: as §1

[4] = compound: Cc1cc(SCc2sc(-c3ccc(C(F)(F)F)cc3)nc2C)ccc1OCC(=O)O
Summary of the method: as §1

doramapimod = compound: Cc1ccc(-n2nc(C(C)(C)C)cc2NC(=O)Nc2ccc(OCCN3CCOCC3)c3ccccc23)cc1 [doramapimod]
Summary of the method: as §1

ispinesib = compound: Cc1ccc(C(=O)N(CCCN)[C@@H](c2nc3cc(Cl)ccc3c(=O)n2Cc2ccccc2)C(C)C)cc1 [ispinesib]
Summary of the method: as §1

bafetinib = compound: Cc1ccc(NC(=O)c2ccc(CN3CC[C@H](N(C)C)C3)c(C(F)(F)F)c2)cc1Nc1nccc(-c2cncnc2)n1 [bafetinib]
Summary of the method: as §1

[5] = compound: Cc1cccc(CC(=O)N2CCc3c2ccc(-c2cn(C)c4ncnc(N)c24)c3F)n1
Summary of the method: as §1

nilotinib = compound: Cc1cn(-c2cc(NC(=O)c3ccc(C)c(Nc4nccc(-c5cccnc5)n4)c3)cc(C(F)(F)F)c2)cn1 [nilotinib]
Summary of the method: as §1

[6] = compound: Cc1nc(Nc2n[nH]c3c2CN(C(=O)N[C@H](CN(C)C)c2ccccc2)C3(C)C)c2sccc2n1
Summary of the method: as §1

dasatinib = compound: Cc1nc(Nc2ncc(C(=O)Nc3c(C)cccc3Cl)s2)cc(N2CCN(CCO)CC2)n1 [dasatinib]
Summary of the method: as §1

[7] = compound: Cc1ncc(-c2ccnc(Nc3ccc(S(C)(=O)=O)cc3)n2)n1C(C)C
Summary of the method: as §1

[8] = compound: Cn1cc(-c2ccc3c(c2)CCN3C(=O)Cc2cccc(C(F)(F)F)c2)c2c(N)ncnc21
Summary of the method: as §1

[9] = compound: Cn1cc(-c2ccc3nnc(C(F)(F)c4ccc5ncccc5c4)n3n2)cn1
Summary of the method: as §1

tipifarnib = compound: Cn1cncc1[C@@](N)(c1ccc(Cl)cc1)c1ccc2c(c1)c(-c1cccc(Cl)c1)cc(=O)n2C [tipifarnib]
Summary of the method: as §1

mubritinib = compound: FC(F)(F)c1ccc(/C=C/c2nc(COc3ccc(CCCCn4ccnn4)cc3)co2)cc1 [mubritinib]
Summary of the method: as §1

Measured: log2 fold change

EIF3C (UniProt Q99613)
inactive: [1] -0.025 | crizotinib -0.178 | [2] -0.028 | [3] 0.223 | duvelisib -0.062 | gandotinib -0.01 | tozasertib 0.076 | [4] 0.115 | doramapimod 0.127 | ispinesib -0.221 | bafetinib 0.066 | [5] 0.116 | nilotinib -0.123 | [6] -0.082 | dasatinib -0.116 | [7] 0.051 | [8] -0.032 | [9] -0.104 | tipifarnib -0.1 | mubritinib -0.077

ELMOD2 (UniProt Q8IZ81)
inactive: [1] -0.01 | crizotinib 0.011 | [2] -0.007 | [3] -0.064 | duvelisib 0.014 | gandotinib -0.045 | tozasertib -0.007 | [4] 0.05 | doramapimod -0.048 | ispinesib 0.176 | bafetinib -0.056 | [5] 0.002 | nilotinib -0.03 | [6] -0.001 | dasatinib -0.062 | [7] 0.008 | [8] 0.021 | [9] -0.008 | tipifarnib 0.015 | mubritinib 0.054

EIF4EBP2 (UniProt Q13542)
inactive: [1] -0.133 | crizotinib 0.051 | [2] 0.253 | [3] 0.006 | duvelisib 0.181 | gandotinib 0.069 | tozasertib 0.091 | [4] 0.005 | doramapimod 0.109 | ispinesib 0.231 | bafetinib -0.152 | [5] 0 | nilotinib 0.13 | [6] -0.059 | dasatinib 0.047 | [7] 0.007 | [8] 0.087 | [9] 0.141 | tipifarnib 0.098 | mubritinib -0.038

EMC6 (UniProt Q9BV81)
inactive: [1] -0.005 | crizotinib 0.051 | [2] -0.008 | [3] -0.09 | duvelisib 0.033 | gandotinib -0.207 | tozasertib 0.116 | [4] 0.033 | doramapimod -0.19 | ispinesib 0.059 | bafetinib 0.084 | [5] 0.177 | nilotinib -0.01 | [6] -0.001 | dasatinib -0.059 | [7] -0.033 | [8] 0.198 | [9] 0.063 | tipifarnib -0.04 | mubritinib -0.024

ELP1 (UniProt O95163)
inactive: [1] 0.031 | crizotinib 0 | [2] 0.027 | [3] -0.021 | duvelisib 0.034 | gandotinib -0.051 | tozasertib -0.009 | [4] 0.006 | doramapimod 0.014 | ispinesib 0.015 | bafetinib -0.015 | [5] 0.065 | nilotinib 0.006 | [6] 0 | dasatinib -0.014 | [7] 0.006 | [8] 0.022 | [9] 0.014 | tipifarnib -0.004 | mubritinib 0.023

EIF2D (UniProt P41214)
inactive: [1] 0.056 | crizotinib -0.138 | [2] 0.031 | [3] 0.224 | duvelisib -0.035 | gandotinib -0.076 | tozasertib -0.008 | [4] 0.106 | doramapimod 0.117 | ispinesib -0.057 | bafetinib 0.153 | [5] 0.185 | nilotinib -0.002 | [6] -0.028 | dasatinib -0.265 | [7] 0.009 | [8] 0.04 | [9] 0.033 | tipifarnib -0.2 | mubritinib 0.014

EIF3D (UniProt O15371)
inactive: [1] -0.021 | crizotinib -0.165 | [2] -0.07 | [3] 0.316 | duvelisib -0.091 | gandotinib 0.012 | tozasertib 0.06 | [4] 0.155 | doramapimod 0.116 | ispinesib -0.17 | bafetinib 0.113 | [5] 0.029 | nilotinib -0.148 | [6] -0.07 | dasatinib -0.088 | [7] 0.058 | [8] -0.035 | [9] -0.08 | tipifarnib -0.111 | mubritinib -0.103

EML3 isoform 2 (UniProt Q32P44)
inactive: [1] 0.074 | crizotinib -0.172 | [2] -0.26 | [3] 0.103 | duvelisib -0.004 | gandotinib 0.128 | tozasertib -0.038 | [4] 0.062 | doramapimod 0.154 | ispinesib -0.236 | bafetinib 0.071 | [5] 0.039 | nilotinib -0.09 | [6] -0.069 | dasatinib 0.054 | [7] -0.042 | [8] -0.021 | [9] -0.129 | tipifarnib 0.055 | mubritinib 0.001

ELOB (UniProt Q15370)
inactive: [1] 0.012 | crizotinib 0.054 | [2] 0.024 | [3] -0.128 | duvelisib 0.085 | gandotinib 0.027 | tozasertib 0.01 | [4] -0.008 | doramapimod 0.054 | ispinesib 0.092 | bafetinib -0.046 | [5] -0.003 | nilotinib -0.003 | [6] -0.016 | dasatinib 0.032 | [7] -0.006 | [8] 0.052 | [9] 0.119 | tipifarnib -0.03 | mubritinib 0.025

ELOF1 (UniProt P60002)
inactive: [1] -0.117 | crizotinib 0.117 | [2] -0.055 | [3] -0.002 | duvelisib -0.1 | gandotinib -0.082 | tozasertib -0.074 | [4] 0.118 | doramapimod -0.295 | ispinesib -0.023 | bafetinib 0.093 | [5] 0.323 | nilotinib 0.014 | [6] 0.008 | dasatinib 0.285 | [7] 0.025 | [8] -0.038 | [9] -0.156 | tipifarnib 0.014 | mubritinib -0.143

ELAVL1 isoform 2 (UniProt Q15717)
inactive: [1] -0.065 | crizotinib -0.052 | [2] -0.253 | [3] 0.373 | duvelisib -0.07 | gandotinib 0.082 | tozasertib 0.082 | [4] 0.061 | doramapimod 0.016 | ispinesib -0.067 | bafetinib 0.033 | [5] -0.051 | nilotinib -0.099 | [6] -0.1 | dasatinib 0.111 | [7] 0.257 | [8] -0.268 | [9] -0.228 | tipifarnib 0.008 | mubritinib -0.253

EEF1A2 (UniProt Q05639)
inactive: [1] 0.046 | crizotinib -0.046 | [2] 0.064 | [3] -0.004 | duvelisib 0.067 | gandotinib -0.019 | tozasertib -0.025 | [4] 0.019 | doramapimod -0.012 | ispinesib -0.035 | bafetinib 0.003 | [5] -0.021 | nilotinib -0.033 | [6] 0.032 | dasatinib -0.065 | [7] -0.018 | [8] 0.067 | [9] 0.039 | tipifarnib -0.017 | mubritinib 0.013

ENOSF1 (UniProt Q7L5Y1)
inactive: [1] 0.037 | crizotinib 0.017 | [2] 0.064 | [3] -0.014 | duvelisib 0.073 | gandotinib -0.023 | tozasertib 0.002 | [4] 0.024 | doramapimod 0.003 | ispinesib 0.042 | bafetinib -0.016 | [5] -0.02 | nilotinib 0 | [6] 0.043 | dasatinib -0.01 | [7] -0.031 | [8] 0.056 | [9] 0 | tipifarnib 0.022 | mubritinib 0.026

EFHD2 (UniProt Q96C19)
inactive: [1] 0.01 | crizotinib 0.046 | [2] 0.083 | [3] 0.021 | duvelisib -0.011 | gandotinib -0.019 | tozasertib 0.084 | [4] 0.063 | doramapimod 0.002 | ispinesib 0.03 | bafetinib -0.076 | [5] 0.031 | nilotinib -0.087 | [6] 0.177 | dasatinib 0.002 | [7] 0.071 | [8] -0.115 | [9] 0.023 | tipifarnib -0.095 | mubritinib 0.072

EMG1 (UniProt Q92979)
inactive: [1] -0.048 | crizotinib 0.074 | [2] -0.144 | [3] 0.078 | duvelisib 0.001 | gandotinib 0.037 | tozasertib -0.009 | [4] -0.021 | doramapimod 0.012 | ispinesib 0.033 | bafetinib 0.032 | [5] -0.02 | nilotinib -0.033 | [6] 0.092 | dasatinib 0.115 | [7] 0.038 | [8] -0.047 | [9] -0.061 | tipifarnib 0.018 | mubritinib -0.01

Pulled one by one from above, 2 records:
EIF4EBP2 (UniProt Q13542)
inactive: [1] -0.133 | crizotinib 0.051 | [2] 0.253 | [3] 0.006 | duvelisib 0.181 | gandotinib 0.069 | tozasertib 0.091 | [4] 0.005 | doramapimod 0.109 | ispinesib 0.231 | bafetinib -0.152 | [5] 0 | nilotinib 0.13 | [6] -0.059 | dasatinib 0.047 | [7] 0.007 | [8] 0.087 | [9] 0.141 | tipifarnib 0.098 | mubritinib -0.038

EMC6 (UniProt Q9BV81)
inactive: [1] -0.005 | crizotinib 0.051 | [2] -0.008 | [3] -0.09 | duvelisib 0.033 | gandotinib -0.207 | tozasertib 0.116 | [4] 0.033 | doramapimod -0.19 | ispinesib 0.059 | bafetinib 0.084 | [5] 0.177 | nilotinib -0.01 | [6] -0.001 | dasatinib -0.059 | [7] -0.033 | [8] 0.198 | [9] 0.063 | tipifarnib -0.04 | mubritinib -0.024

Continuation.

EHD1 (UniProt Q9H4M9)
inactive: [1] 0.026 | crizotinib -0.063 | [2] 0.065 | [3] -0.058 | duvelisib 0.025 | gandotinib -0.057 | tozasertib -0.027 | [4] -0.001 | doramapimod -0.016 | ispinesib -0.031 | bafetinib -0.063 | [5] 0.021 | nilotinib -0.068 | [6] -0.008 | dasatinib -0.072 | [7] 0.013 | [8] 0.035 | [9] -0.002 | tipifarnib -0.032 | mubritinib -0.02
